Source: patent US11440969B2, “Use of human epididymis protein 4 (HE4) for assessing responsiveness of MUC 16-positive cancer treatment” (Genentech, Inc., priority 2016, dated 2022)

Test system: CA125
Experiment: Serum CA125 in ovarian cancer patients treated with anti-MUC16-TDC
Type: in vivo, human

B1: DMUC4064A (conjugate, chains of the INN, looked up)
VH: EVQLVESGGGLVQPGGSLRLSCAASGYSITNDYAWNWVRQAPGKGLEWVGYISYSGYTTYNPSLKSRFTISRDTSKNTLYLQMNSLRAEDTAVYYCARWTSGLDYWGQGTLVTVSS
VL: DIQMTQSPSSLSASVGDRVTITCKASDLIHNWLAWYQQKPGKAPKLLIYGATSLETGVPSRFSGSGSGTDFTLTISSLQPEDFATYYCQQYWTTPFTFGQGTKVEIK
modifications: vedotin payload (MMAE)
1.0-5.6 mg/kg
  dependence of maximal decrease in serum CA125 on dose: did not appear to be dependent on the dose
two-tailed t-test p=0.0017
  reduction in serum CA125, on treatment greater than five months vs less than five months: significantly lower
